{"source": "patent US20210267197A1", "about": "“PEPTIDES SIMILAR TO THE NATURAL PEPTAIBOL TRICHOGIN GA IV WITH PHYTOSANITARY ACTIVITIES” (UNIVERSITA' DEGLI STUDI DI PADOVA, priority 2018, published 2021)", "tested_on": "Botrytis cinerea", "assay": "Bean leaves inoculated with Botrytis cinerea", "type": "in vivo", "settings": "50 μM", "note": "Some entries share one result that the patent states for a list of compounds.", "data": [{"substance": "1-octanoyl-Aib-Lys(HCl)-Leu-Aib-Lys(HCl)-Gly-Leu-Aib-Gly-Ile-Lol [Peptide K25]", "values": [{"measurement": "Reduction in the incidence of B. cinerea (rot symptoms) on bean leaves", "result": "85-90%"}]}]}
